Consider 1 substance from publication PMC6803685.

Protein sequences, listed by entry. Tags and fused reporters are not part of them.
UniProt P14618: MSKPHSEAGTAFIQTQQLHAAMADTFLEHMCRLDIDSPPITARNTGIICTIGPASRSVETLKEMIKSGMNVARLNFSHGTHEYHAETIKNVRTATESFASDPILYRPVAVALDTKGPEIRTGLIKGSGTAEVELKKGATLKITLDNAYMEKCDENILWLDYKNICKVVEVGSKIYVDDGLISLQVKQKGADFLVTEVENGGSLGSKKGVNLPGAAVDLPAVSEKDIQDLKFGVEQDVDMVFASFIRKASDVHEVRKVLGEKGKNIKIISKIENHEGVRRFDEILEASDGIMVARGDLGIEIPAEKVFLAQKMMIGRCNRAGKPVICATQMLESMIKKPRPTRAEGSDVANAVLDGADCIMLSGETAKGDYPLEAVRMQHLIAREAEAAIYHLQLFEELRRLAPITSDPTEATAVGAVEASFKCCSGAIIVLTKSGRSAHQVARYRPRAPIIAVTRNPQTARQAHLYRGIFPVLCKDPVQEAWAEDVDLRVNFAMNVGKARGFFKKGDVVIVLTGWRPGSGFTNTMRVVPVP

The target of this test is T1, VE-cadherin (human (endogenous in HUVEC)) (UniProt P33151).
T1 sequence: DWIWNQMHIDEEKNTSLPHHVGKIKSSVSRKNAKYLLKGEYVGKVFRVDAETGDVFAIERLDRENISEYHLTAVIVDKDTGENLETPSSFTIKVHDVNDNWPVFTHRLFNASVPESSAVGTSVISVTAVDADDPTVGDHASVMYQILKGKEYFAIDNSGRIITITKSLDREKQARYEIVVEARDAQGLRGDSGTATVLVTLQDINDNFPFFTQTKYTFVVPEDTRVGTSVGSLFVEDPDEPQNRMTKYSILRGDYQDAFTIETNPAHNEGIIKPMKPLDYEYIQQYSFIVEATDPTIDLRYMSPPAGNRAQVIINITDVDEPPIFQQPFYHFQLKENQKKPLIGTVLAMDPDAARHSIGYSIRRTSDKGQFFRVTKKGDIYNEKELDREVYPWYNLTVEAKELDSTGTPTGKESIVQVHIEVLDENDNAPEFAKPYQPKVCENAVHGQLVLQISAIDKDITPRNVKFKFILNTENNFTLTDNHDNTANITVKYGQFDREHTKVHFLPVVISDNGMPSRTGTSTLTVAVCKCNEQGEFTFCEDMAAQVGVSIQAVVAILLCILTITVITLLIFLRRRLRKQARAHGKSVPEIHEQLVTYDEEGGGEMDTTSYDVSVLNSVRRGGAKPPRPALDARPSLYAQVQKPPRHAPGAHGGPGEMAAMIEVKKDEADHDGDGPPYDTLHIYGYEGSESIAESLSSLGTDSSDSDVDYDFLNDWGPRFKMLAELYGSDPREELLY
Nature of the test: proximity ligation; confluent HUVECs, fixed and permeabilized; Duolink PLA with rabbit anti-PKM2 and goat anti-VE-cadherin primary antibodies overnight at 4 °C; rabbit and goat IgGs as negative control.

No constants are given. Whether binding was seen depends on the method and setting. Binding seen in cells or lysates may run through a third protein. Some binding calls cover weakened binding; strength is not graded here.

On to “pyruvate kinase 2 (PKM2) (from UniProt P14618 1-531) (enzyme)”, for which the binding entry is “binds”.
